Test results published in PMC7075897.
No constants are given. Whether binding was seen depends on the method and setting. Binding seen in cells or lysates may run through a third protein. Here binding means that the protein was enriched with, or labelled near, the bait; the list need not be complete. Sequences can lack the tags named with a protein. Each block holds one binder with its values, some of them ahead of it.

Experiments:
[1] = biological target: T1, Usp fused to APEX2 through a 25 nm GS linker, marked with 3xFLAG (Drosophila melanogaster) (UniProt P20153); test: proximity labelling; APEX2 fused to EcR or Usp, stably expressed in S2 cells; 20E or DMSO 1 h, biotin-phenol 30 min, 1 mM H2O2 5 min; nuclear extract, Streptavidin-Agarose precipitation, LC-MS/MS
T1 sequence: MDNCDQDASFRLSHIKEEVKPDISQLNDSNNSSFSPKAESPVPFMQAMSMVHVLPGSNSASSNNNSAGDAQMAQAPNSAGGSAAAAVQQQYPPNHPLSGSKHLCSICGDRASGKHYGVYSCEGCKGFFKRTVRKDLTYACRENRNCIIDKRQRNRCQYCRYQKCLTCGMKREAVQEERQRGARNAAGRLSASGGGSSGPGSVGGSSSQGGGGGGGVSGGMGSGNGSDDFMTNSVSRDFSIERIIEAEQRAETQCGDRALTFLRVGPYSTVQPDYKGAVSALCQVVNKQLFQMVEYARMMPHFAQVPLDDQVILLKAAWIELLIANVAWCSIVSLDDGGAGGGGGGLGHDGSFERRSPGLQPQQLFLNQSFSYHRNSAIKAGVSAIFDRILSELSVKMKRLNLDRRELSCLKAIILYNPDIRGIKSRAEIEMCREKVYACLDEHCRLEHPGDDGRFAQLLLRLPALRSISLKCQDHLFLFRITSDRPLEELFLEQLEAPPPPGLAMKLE

[2] = biological target: T2, EcR (isoform A) fused to APEX2 through a 25 nm GS linker, marked with 3xFLAG (Drosophila melanogaster) (UniProt P34021); test: as above
T2 sequence: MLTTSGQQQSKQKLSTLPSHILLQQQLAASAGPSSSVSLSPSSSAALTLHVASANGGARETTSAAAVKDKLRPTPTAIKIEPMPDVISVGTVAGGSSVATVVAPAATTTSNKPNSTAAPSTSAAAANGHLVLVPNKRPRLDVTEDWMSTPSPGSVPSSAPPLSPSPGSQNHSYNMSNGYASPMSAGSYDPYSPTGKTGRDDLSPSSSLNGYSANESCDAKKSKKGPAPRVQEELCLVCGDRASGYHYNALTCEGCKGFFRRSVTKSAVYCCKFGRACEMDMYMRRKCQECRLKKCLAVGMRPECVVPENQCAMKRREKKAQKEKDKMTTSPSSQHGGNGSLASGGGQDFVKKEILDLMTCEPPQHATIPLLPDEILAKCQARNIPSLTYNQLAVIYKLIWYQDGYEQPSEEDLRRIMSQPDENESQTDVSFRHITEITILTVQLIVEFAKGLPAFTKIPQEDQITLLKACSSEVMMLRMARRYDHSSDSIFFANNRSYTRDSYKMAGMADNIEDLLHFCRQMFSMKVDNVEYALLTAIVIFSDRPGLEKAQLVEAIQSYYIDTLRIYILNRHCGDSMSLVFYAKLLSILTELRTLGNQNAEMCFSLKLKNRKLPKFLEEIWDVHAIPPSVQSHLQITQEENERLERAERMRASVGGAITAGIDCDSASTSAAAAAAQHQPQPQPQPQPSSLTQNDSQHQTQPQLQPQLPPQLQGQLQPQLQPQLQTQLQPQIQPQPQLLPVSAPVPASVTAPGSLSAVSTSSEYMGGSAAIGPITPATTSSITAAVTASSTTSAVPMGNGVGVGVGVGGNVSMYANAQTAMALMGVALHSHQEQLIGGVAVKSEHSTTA

B3: RanBPM (protein, UniProt Q4Z8K6 1-962)
chain: MENVEEAPPLSSESNSNSNNSSASSSSHQLSQSGAMGAEIAPSTSRSHSHSPTPSPPVPASSHDQPHPDHPSPPLNASETEARENSPHDHSPTPTFHQTAPPPTTSSTAPQRDEREQQQQQEAPPLQQDQQENSPAQDQELHPLLDQQNQEYPAVHQDQQAEQNQELHHIEGLIRHRESQNPEEHPPQASLENRETLGREDTNQEPDEPQVRDPEIEPEAEPPPPLLLEDLDEQDSGSQDLNEQQPPLIIDANAIAETIDANAVERIDDYEDDDEEVDEEEEVVEDRVDRAGEVASVSGAQRLHSVAVLPRYSSASRAPRSSNNNNNNISNHNNNNNNSNSNSLSRRTRHFYSNNGSHFSNDMFPSHNPRSSTQTSSPRVGGRRHHSTPAASSNSPQHQGVDPLRLLYPNVNESETPLPRCWSPHDKCLSIGLSQNNLRVTYKGVGKQHSDAASVRTAYPIPSSCGLYYFEVRIISKGRNGYMGIGLTAQQFRMNRLPGWDKQSYGYHGDDGNSFSSSGNGQTYGPTFTTGDVIGCCVNFVNNTCFYTKNGVDLGIAFRDLPTKLYPTVGLQTPGEEVDANFGQEPFKFDKIVDMMKEMRSNVLRKIDRYPHLLETPENLMNRLVSTYLVHNAFSKTAEAFNGYTNQTFNEDLASIKTRQKIIKLILTGKMSQAIEHTLRSFPGLLENNKNLWFALKCRQFIEMINGADIENVNNKVTATTQTMPTNQTSVIQSTKTFKHSKSGSGNGNVNINQTQQQNNTAIPAVIKPQGGDRPDIKNMLVDDNSNKCVEHDSNSMDVEMEPCQSHSNGGDSSSNGNASAVRNSLDAIDEEMDVDVSPSSRNCGRVIEKILEFGKELSSMGQQLEKENLMTEEERQMLEDAFSLIAYSNPWSSPLGWLLCPSRRESVSTTLNSAILESLNFERRPPLEYLVAHASELIKVIGQHSLGEDAFITIDDVFPQN
binding [1]: binds | binding [2]: binds

B4: SMC2 (protein, UniProt Q7KK96 1-1179)
chain: MYVKKLVLDGFKSYGRRTEIEGFDPEFTAITGLNGSGKSNILDSICFVLGISNLQNVRASALQDLVYKNGQAGITKATVTIVFDNTNPAQCPQGYEKCREISVTRQVVVGGKNKFLINGKLVQNKKVQDFFCSIQLNVNNPNFLIMQGKIQQVLNMKPKEVLSMVEEAAGTSQYKTKRDATKTLIEKKETKVRETKVLLDEEVLPKLVKLRQERSAYQEYQKICRDIDFLIRIHISAKYLKQCETLKTVEANEHKIEDRIANCKATHAKNLAEVESIENSVKEMQQQIDAEMGGSIKNLETQLSAKRALEATATGSLKAAQGTIQQDEKKIRMASKNIEDDERALAKKEADMAKVQGEFESLKEADARDSKAYEDAQKKLEAVSQGLSTNENGEASTLQEQLIVAKEQFSEAQTTIKTSEIELRHTRGVLKQREGETQTNDAAYVKDKKLHDQLVVEIKNLERQLQSLDYEGGHFEKLKQRRNDLHMRKRDLKRELDRCNASRYDLQYQDPEPNFDRRKVRGLVGKLFQVKDMQNSMALVQTAGGSLYSYVTDDDVTSKKILQRGNLQRRVTLIPINKIQSGSLNRNVVEYAQNKVGAENVQWAMSLIDYDRYYEPVMKFCFGGTLICKDLIVAKQISYDPRINCRSVTLEGDVVDPHGTVSGGAAPKGANVLEELHAIKQIEKEYREIDSEIAQVEKQIASIENQALAFNKMKENLDLRQHELTMCENRLAQTTFQQNQAEIEEMRERVKTLEQQIIDSREKQKTSQAKIVDIEAKLADAKGYRERELNAATNEIKVTKQRAEKSRANWKKREQEFETLQLEITELQKSIETAKKQHQEMIDNLEKFKAELDALKVNSSSAASEVTELEQAIKEQKDKLRDQNKEMRNQLVKKEKMLKENQEIELEVKKKENEQKKISSDAKEAKKRMEALEAKYPWIPEEKNCFGMKNTRYDYSKEDPHEAGNKLAKMQEKKDKMERTLNMNAIMVLDREEENFKETERRRNIVAMDKEKIKKIIVKMDEEEQDQLNKAATEVNTNFSGIFSSLLPGAEAKLNPVHTNGCLTGLEIKVGFNGIWKESLGELSGGQKSLVALSLVLAMLKFSPAPLYILDEVDAALDMSHTQNIGSMLKQHFTNSQFLIVSLKDGLFNHANVLFRTLFEEGVSTITRQVSRQATTNKR
binding [1]: binds | binding [2]: binds

More lines, now with the values ahead:

binding [1]: binds | binding [2]: binds
B1: smid (protein, UniProt P91638 1-943)
chain: MKKAKPLLHDHLITIRVKKYLEEHIGETYLDVKQMTRELMQKYPEYSRRKFGPFRQLVHQAFSIISESYNLDKVSSSEEDCVSEDSEPPPTNSVMNNMMNSLYSQPRKPLAPKPISEPIDISSGDENEDDSNTKTTNGDGVAAAAAPPPPTPAVQGSALKRLMEEVPEIAVAAKKAKPNTIHVSSSEAIQKLHQVVGNRAKNLSEDAVPRSKDHRNVPGLYQQLHQNQSRDRLRKFKRDLEVQHPTESFRDIGGMDSTLKELCEMLIHIKSPEFYFQLGLLPSRGLLLHGPPGCGKTFLARAISGQLKMPLMEIPATELIGGISGESEERIREVFDQAIGYSPCVLFIDEIDAIGGNRQWASKDMERRIVSQLISSLDNLKANEFGQSVVVIAATTRPDVLDPGLRRIGRFDHEIAIHIPSRKERREILRIQCEGLSVDPKLNYDKIAELTPGYVGADLMALVSRAASVAVKRRSMKKFRELHAASEKNMTTVTLDDDEPSEDAGETPVPDSKGEETAKDAEAEQKVDGDKETSAKDKSEGDSPNIETPKKATNGNSSIKSPQKTPKKSAEKPTDAAMDVDNVAPEEPKKAVEQEVDSSSSNDEYYEPTLAELTNFLDNPPEEFADPNFCLTLIDFVDAIKVMQPSAKREGFITVPDTTWDDIGALEKIREELKLAVLAPVKYPEMLERLGLTAPSGVLLCGPPGCGKTLLAKAIANEAGINFISVKGPELMNMYVGESERAVRACFQRARNSAPCVIFFDEFDSLCPKRSDGGDGNNSGTRIVNQLLTEMDGVEERKGVYILAATNRPDIIDPAILRPGRLDTILYVGFPEQSERTEILKATTKNGKRPVLADDVDLDEIAAQTEGYTGADLAGLVKQASMFSLRQSLNNGDTNLDDLCVRSQHFQEALQQLRPSVNEQDRKIYDKLRLKYAAPRVPTLNDK

binding [1]: binds | binding [2]: binds
B2: Uba2 (protein, UniProt Q7KJV6 1-700)
chain: MAAAINGVFPPTLQELVKKSKVLVVGAGGIGCEVLKNLVLSGFTDIEIIDLDTIDLSNLNRQFLFHREHVGKSKARVARESALSFNPDAKITAYHDSVTSTDYGVNFFKKFDLVLSALDNRAARNHVNRMCLNADVPLIESGTAGYNGQVELIKRGLTQCYECTPKDKQRSFPGCTIRNTPSEPIHCIVWAKHLFNQLFGESLEDEDISPDAADPDAKEKDGGDGNGEPKGDGKEKGEESKEEKEAKEDTANGNIMRINTRQWAKDSNYDAGKLFNKFFNEDITYLLRMSNLWKTRKAPVPVQWDTLLPEGSSGDQKDVAKQHHKVWSIEECAQVFANSLKELSANFLKLEGDDTLAWDKDDQPAMDFVAACANVRSHIFDIERKSRFEIKSMAGNIIPAIATTNAITAGISVMRAFKVLEAKWEQCKAVYARLRPNARNHFLVPDASLPGPNPNCHVCASDPAITLKIDTKRMRIKELRDEVLVKTLNMLNPDVTVQSNGSILISSEEGETECNDGKLLSELNIVDGVILKCDDFFQNYELSIIISHFDAERDENLFEVVADASQLKPKDEDQKEAVKDKEDEPKSAKKRSTNGEGDSKDDGPSTSKRSRPNEVVEEDDDDCLVIEEDEDQADVVVVATDKLSVQSPPKSGSKRKPCEVIEDEDITEILESSDDEPAGPTKCKRSRLDDSNPVAVISID
